Measured values from PubChem BioAssay AID1794845 (National Center for Advancing Translational Sciences (NCATS), 2023).
Among all 6,900 compounds or so, fewer than 10 were called active. Calls come from the whole dose curve; as a rule, active = well fitted curve in the direction sought with a large enough effect; inconclusive = small, poorly fitted or top-dose-only effect, or another doubt; inactive = no such curve, though single readings can be large or run the other way. The list shows a part of the results.

By UniProt entry, the sequences of proteins in these tests, tags left out. Where a name states a change or a piece, a line headed by the entry shows the natural chain unless it says otherwise.
UniProt C7C422: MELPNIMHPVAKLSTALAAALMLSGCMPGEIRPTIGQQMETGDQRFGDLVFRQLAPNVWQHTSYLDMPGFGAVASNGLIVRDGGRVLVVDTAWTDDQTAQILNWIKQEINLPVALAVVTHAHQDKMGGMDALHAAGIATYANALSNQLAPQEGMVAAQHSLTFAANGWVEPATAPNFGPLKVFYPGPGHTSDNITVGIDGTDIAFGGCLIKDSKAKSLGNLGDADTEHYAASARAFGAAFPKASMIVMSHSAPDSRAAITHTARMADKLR

What follows are compounds tested against Metallo-beta-lactamase type 2 (Klebsiella pneumoniae) (UniProt C7C422) (assay: qHTS to identify inhibitors of the New Delhi Metallo-beta-lactamase (NDM): primary screen against the NCATS Gemini Collection). Details: NDM-1 enzyme, meropenem hydrolysis, absorbance 300 nm; at 38.4 µM (top of the series) unless noted.
In short: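 Meropenem hydrolysis (50 uM final) by 2 nM NDM-1 read as 300 nm absorbance after 30 min, following >30 min compound–enzyme preincubation in HEPES pH 7.0 with 1 uM ZnSO4 and 0.01% Tween20.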
Note: % of control where 0% means no effect.

Activity % (negative = inhibition), inactive:
COCC(=O)NC[C@H]1CCN(Cc2cccn2C)C[C@H]1N(C)C 8.18%
O=C(NC1CCCN(C2CCCCCC2)C1)c1ccccc1C(F)(F)F (centres undefined) 2.98%
COC(=O)[C@@H](Cc1c[nH]c2ccccc12)NC(=O)[C@@H]1CN(C(=O)Nc2ccccc2)CCN1C(=O)NC(C)C 12.2%
CN(C)[C@@H]1CN(C(=O)C2CCCCC2)CC[C@@H]1CO -3.62%
O=C(Nc1cccnc1)c1ccc2c(c1)OCCN(c1cccc(OC(F)(F)F)c1)C2 9.41% [at 57.5 µM]
Cc1nnc([C@@H]2CC(F)(F)CN2C(=O)COc2ccccc2)o1 0.585%
CCN1CCN(C(=O)C2CCCN(Cc3cccnc3)CCC(=O)NCC2)CC1 (centres undefined) 17.8%
Cc1noc(C)c1CC(=O)N1CC[C@@H](NC(=O)c2cnccn2)[C@H](O)C1 3.57%
CN1CCC(C(=O)NCc2c[nH]c3ncccc23)CC1 7.4% [at 57.5 µM]
Cc1cc(Cl)ccc1NC1CN(C(=O)OC(C)(C)C)C1 47.6% [at 57.5 µM]
COC(=O)[C@H]1CCCN1C(=O)[C@@H]1[C@@H](NC(=O)Nc2ccc(F)cc2F)CCN1C(=O)c1cccn1C 8.61%
Cc1ccc(CNC(=O)Cn2c(N3CCCCC3)nc(C)c(C)c2=O)cc1 8.87%
COc1ccc(-c2nnc3n2CCN(C(=O)c2ccc(Cl)nc2)C3)cc1 -1.28%
CC(=O)c1c(C)nn(CC(=O)NC(C)c2cnn(-c3ccccc3C)c2C)c1C (centres undefined) 2.03%
Cc1ccc(CN2CCC3(CC2)CN(c2ncccn2)CC3CO)cc1C (centres undefined) 10.2%
CN(C)Cc1nnc(C2CC(NC(=O)Cc3c[nH]c(=O)n(C)c3=O)C2)n1C (centres undefined) -2.57%
CN1CCN(C(=O)[C@@H]2CCC[C@@H](NCc3cnn(C)c3)CN(C)C(=O)C2)CC1 3.32% [at 57.5 µM]
COc1ccc(CC(=O)Nc2ccc3ncnc(N4CCCC4)c3c2)c(Cl)c1 0.0592%
CC1(c2noc(-c3cccnc3)n2)CCN(C(=O)CCC(=O)N2CC(=O)Nc3ccccc32)CC1 -1.49%
CCOCCOC1CCN(S(=O)(=O)c2ccc(OC)cc2)CC1 0.217%
CN1CCCCC1CCNC(=O)c1ccc(N2CCOCC2)nc1 (centres undefined) 5.66%
O=C(O)c1cccc(C2CCCN(C(=O)CCCn3ccnc3)C2)c1 (centres undefined) 23.1%
CC[C@H]1CN(C(=O)NC(C)C)CC[C@H]1CC(=O)N1CCC(C(=O)OC)CC1 10.6% [at 57.5 µM]
Cc1nc2ccccc2n1CCNC(=O)CC[C@H]1NC(=O)c2ccccc2NC1=O 3.17%
CC(=O)Nc1cc(-c2cc(C(=O)NCc3cccnc3)c3c(c2)N(C)CCO3)ccn1 -1.79% [at 57.5 µM]
CCc1ccc(CNc2ncncc2-c2nc(-c3ccccc3)no2)cc1 0.609%
COc1ccc(NC(=O)c2nc3sccn3c2-c2ccncc2)cc1 11.2% [at 57.5 µM]
COc1ccc(Cl)cc1Nc1ncncc1-c1nc(-c2ccccc2)no1 4.11%
O=C(c1ccc(C(F)(F)F)cc1)N1CCCC2(C1)C(=NC1CCCC1)NC(=O)N2c1cccnc1 (centres undefined) 0.178%
CCCS(=O)(=O)N1CC[C@H]2NC(=O)N(c3ccc(F)cc3)C(=O)[C@H]21 5.7% [at 57.5 µM]
COc1ccc([C@H]2C[C@@H](O)[C@@H](O)[C@@H]2N2CCCCC2)cc1 10.9% [at 77.1 µM]
O=c1c2cc(-c3cccs3)nn2ccn1CC(O)c1cccc(Cl)c1 (centres undefined) 9.7%
CN(CCc1noc(C2CN(C(=O)CN3CCCCCC3)C2)n1)S(C)(=O)=O -4.44%
Cc1cccc(-n2ncc3c2CCCC3NC(=O)CN2CCNC(=O)C2)c1C (centres undefined) 5.9%
Cc1nc(C2(C)CCN(C(=O)c3ccc(Cc4c(C)noc4C)o3)CC2)no1 92.1%
Cc1nc(C2CC(O)C2)cc(N2CCN(C(=O)c3cccs3)CC2)n1 (centres undefined) 58.6%
COC[C@@]12CC[C@@H](N3CCOCC3)C[C@H]1CCN(c1nccc(N)n1)C2 0.0248%
COCC1CN(C(=O)Cn2c(=O)oc3ccccc32)CC12CCNCC2 (centres undefined) 11.8%
CCCc1cc(C(=O)N2CCc3c(nc(-c4cccnc4)[nH]c3=O)C2)n[nH]1 -0.0049%
O=C1NC2(CCN(C(=O)Cc3ccccc3)C2)OCc2ccccc21 (centres undefined) 10.4% [at 57.5 µM]
CC[C@H]1CN(C(C)=O)CC[C@H]1CC(=O)NCCOC -0.183% [at 77.1 µM]
O=C(CN1C(=O)C2(CCCCC2)C1c1ccccc1)NCCc1c[nH]c2ccccc12 (centres undefined) 0.185%
Cc1cccc(N2CCN(C(=O)C3c4ccccc4CC(=O)N3C)CC2)c1C (centres undefined) 9.72%
Cc1cc(C)c2[nH]c(C(=O)N(C)Cc3ccccc3-n3cccn3)c(C)c2c1 5.75%
c1ccc(CN(Cc2ccoc2)[C@@H]2C[C@@H]3CO[C@H](c4ccccc4)C[C@@H]3C2)cc1 22.2%
O=S(=O)(c1cc(F)ccc1F)N1CCCC1c1nncn1Cc1ccncc1 (centres undefined) -3.23%
CC(=O)N1CCc2nn(CC(=O)N3CCN(c4ccccc4)CC3)c(=O)cc2C1 5.94%
Cc1occc1-c1nc2ncccc2[nH]1 47.1% [at 77.1 µM]
O=C(CCCc1ccc(F)cc1)N[C@@H]1CCOC[C@H]1Oc1ccccn1 -0.127%
Cn1nc(NC(=O)C2CCS(=O)(=O)C2)c2c(Oc3cccnc3)cccc21 (centres undefined) 3.9%
CCSCCNC(=O)c1c(C)noc1-c1ccc(C(C)(C)C)cc1 -0.26%
Cc1cn(CC(=O)N2CC[C@@](C)(O)[C@@H](Cc3ccccc3)C2)c(=O)[nH]c1=O -2.65%
Cc1nnnn1CCC(=O)Nc1nn(C)c2cccc(N3CCOCC3)c12 4.87%
NC(=O)NCc1cn(C2CCN(C(=O)C3CCCCCC3)CC2)nn1 6.42%
c1ccc2cc(-c3nc(C4CCOC4)no3)ncc2c1 (centres undefined) 6.36%
Fc1ccccc1Nc1ccnc(N2CC3CCC(C2)N3CC(F)(F)F)n1 4%
O=C(Nc1ccc([C@@H](O)[C@H]2COCC(=O)N2Cc2ccccc2F)cc1)c1ccc2c(c1)OCO2 9.42%
CCN(Cc1cccc2nonc12)CC1CCCN(CCc2cccc(OC)c2)C1 (centres undefined) 6.85%
COC(=O)C1=CN(CC(=O)NC(C)c2ccccc2)S(=O)(=O)N=C1C (centres undefined) 6.76%
CC(C)COc1cc(=O)n2c(c1C(=O)NCCCN1CCOCC1)CCCCC2 -0.783%
CCCNC(=O)N[C@@H]1C=C(C(=O)N[C@H](CC(C)C)C(N)=O)C[C@@H](O)[C@@H]1O 21.5% [at 57.5 µM]
O=C(O)c1cnc(N2CCCCC2)nc1-c1ccncc1 12.3%
Cc1nnc([C@@H]2CC(F)(F)CN2C(=O)c2ccoc2)o1 5.76%
COCC1CN(C(=O)c2sccc2C)CC12CCOCC2 (centres undefined) 4.56%
COc1cccc(N2C(=O)NC(=NC3CCCC3)C23CCCN(C(=O)c2ccc(C)cc2)C3)c1 (centres undefined) 6.59%
COc1ccc(-c2nn(-c3ccccc3C)cc2CN2C[C@@H](C)O[C@@H](C)C2)cc1F 1.11%
Cc1nc(C2CCCN(C(=O)C(C)(C)N)C2)cc(N2CCOCC2)n1 (centres undefined) 3.69%
Cc1ccc(C(=O)N2C[C@@H](Oc3cccnc3)C[C@H]2C(N)=O)s1 2.46%
COc1ccc(C(=O)N2CC[C@H]3NC(=O)N(c4ccc(Oc5ccccc5)cc4)C(=O)[C@H]32)cc1 -1.79%
COc1ccc(-c2cc(C(=O)N3CCOC(c4ccc(F)cc4)C3)[nH]n2)cc1 (centres undefined) 10.3%
COc1ccc(CCC(=O)N2CCCCCC2CN2CCC(OC)CC2)cc1 (centres undefined) 32.7%
CC(=O)NCCc1ncc(C)n1C1CCC1 29.8%
Cc1ccccc1CN1CCC(CN(Cc2cccnc2)C(=O)Cc2ccccc2)CC1 2.67%
C#Cc1cccc(C(=O)N2CCC(Cc3ccc(Cl)cc3)(C(=O)OCC)CC2)c1 2.54%
CCCN(C)C(=O)Cn1c(C)ccc(NS(=O)(=O)c2ccc(C)cc2)c1=O 27.1%
O=C(c1cccs1)C1CCCN(Cc2nc(CCc3ccccc3)no2)C1 (centres undefined) 0.209%
Cn1ccc2c(C(=O)NCCc3cnc[nH]3)nc(-c3ccc(N4CCOCC4)cc3)cc21 17.5% [at 57.5 µM]
CC(C)(C)CC(=O)N1C[C@@H](CO)[C@@H]2Oc3ccc(Cl)cc3[C@@H]21 2.46%
O=C(c1ccc(CCC2COc3ccccc3O2)cc1)N1CCCCC1 (centres undefined) 2.29%
O=C(NC1CC1)c1ccc2nnc(C3CCCC3)n2c1 -2.62% [at 57.5 µM]
CCc1nc(-c2c3n(c(=O)n(CCOc4ccc(F)cc4)c2=O)CCCC3)no1 4.9%
CN(C)CC1(O)CCC2(CCN(C(=O)CCC3CCCC3)CC2)CC1 -1.31%
COCCN1CC(CO)C2(CCN(Cc3ccc(C#N)cc3)CC2)C1 (centres undefined) -4.56%
COC(=O)[C@H](NC(=O)[C@@H]1C[C@@H](NC(=O)CSC)CCN1S(=O)(=O)c1ccc(OC)cc1)C(C)C 48.3%

Reprinted at random: five compounds from above, in no set order.
Activity % (negative = inhibition), inactive:
COC(=O)C1=CN(CC(=O)NC(C)c2ccccc2)S(=O)(=O)N=C1C (centres undefined) 6.76%
O=C(O)c1cnc(N2CCCCC2)nc1-c1ccncc1 12.3%
COC(=O)[C@@H](Cc1c[nH]c2ccccc12)NC(=O)[C@@H]1CN(C(=O)Nc2ccccc2)CCN1C(=O)NC(C)C 12.2%
CC1(c2noc(-c3cccnc3)n2)CCN(C(=O)CCC(=O)N2CC(=O)Nc3ccccc32)CC1 -1.49%
CCc1ccc(CNc2ncncc2-c2nc(-c3ccccc3)no2)cc1 0.609%
